In patent US9598297B2, “Method for treating organic-matter-containing water” (KURITA WATER INDUSTRIES LTD., priority 2009, dated 2017):

System: slime
Assay: Effect of inhibiting increase in pressure difference between modules of the RO membrane separation device

## [Na+].[O-]Cl [Comparative Example 2, NaClO]
Flow Days 1
  Pressure Difference between Modules: 0.02 MPa
Flow Days 7
  Pressure Difference between Modules: 0.025 MPa
Flow Days 30
  Pressure Difference between Modules: 0.03 MPa
Flow Days 60
  Pressure Difference between Modules: 0.14 MPa
